For at least one entry, the source does not settle the construct or the ends of the probe. For part of these data: At least one verdict was read from the data and is not stated in words by the source.
How the values were obtained:
Test in all cases: EMSA
[1] = test system: MpARF2 DBD (Marchantia polymorpha); settings: positive control; 20 mM HEPES pH 7.8, 50 mM KCl, 100 mM Tris pH 8.0, 2.5% glycerol, 1 mM DTT, 0.09 mg/ml herring sperm ssDNA, 20 nM Cy5-dsDNA, 4 °C 1 h, 2% agarose 0.5X TBE; recombinant protein; label: 5'-Cy5 on strand 1
[2] = test system: MBP-PmARF1 DBD (Penium margaritaceum); settings: concentration series in nM; 20 mM HEPES pH 7.8, 50 mM KCl, 100 mM Tris pH 8.0, 2.5% glycerol, 1 mM DTT, 0.09 mg/ml herring sperm ssDNA, 20 nM Cy5-dsDNA, 4 °C 1 h, 2% agarose 0.5X TBE; recombinant protein; protein details: N-terminal 6xHis-MBP; label: 5'-Cy5 on strand 1
[3] = test system: MBP-SmARF3 DBD (Spirogloea muscicola); settings: titration 5-100 uM as printed, cooperative, concentration-dependent; 20 mM HEPES pH 7.8, 50 mM KCl, 100 mM Tris pH 8.0, 2.5% glycerol, 1 mM DTT, 0.09 mg/ml herring sperm ssDNA, 20 nM Cy5-dsDNA, 4 °C 1 h, 2% agarose 0.5X TBE; recombinant protein; protein details: N-terminal 6xHis-MBP; label: 5'-Cy5 on strand 1

Measured: binding result

GATACACGCTTGTCGGCCAAAGGCCGACAACCACTCA (double strand) [IR7]
binds: all assays above
